Assay results taken from article PMC8133684, “The URL1–ROC5–TPL2 transcriptional repressor complex represses the ACL1 gene to modulate leaf rolling in rice”.
Results are given in words; binding and its absence hold for the method and conditions named. For part of these data: Binding seen in cells or lysates may run through a third protein. Some binding calls cover weakened binding; strength is not graded here. Tags and fused reporters may be left off the sequences shown.

T1: URL1 (UPWARD ROLLED LEAF1), HD-ZIP IV family member RICE OUTERMOST CELL-SPECIFIC 8 (ROC8), yeast two-hybrid fusion (rice (Oryza sativa L.)) (UniProt Q69T58)
T1 sequence: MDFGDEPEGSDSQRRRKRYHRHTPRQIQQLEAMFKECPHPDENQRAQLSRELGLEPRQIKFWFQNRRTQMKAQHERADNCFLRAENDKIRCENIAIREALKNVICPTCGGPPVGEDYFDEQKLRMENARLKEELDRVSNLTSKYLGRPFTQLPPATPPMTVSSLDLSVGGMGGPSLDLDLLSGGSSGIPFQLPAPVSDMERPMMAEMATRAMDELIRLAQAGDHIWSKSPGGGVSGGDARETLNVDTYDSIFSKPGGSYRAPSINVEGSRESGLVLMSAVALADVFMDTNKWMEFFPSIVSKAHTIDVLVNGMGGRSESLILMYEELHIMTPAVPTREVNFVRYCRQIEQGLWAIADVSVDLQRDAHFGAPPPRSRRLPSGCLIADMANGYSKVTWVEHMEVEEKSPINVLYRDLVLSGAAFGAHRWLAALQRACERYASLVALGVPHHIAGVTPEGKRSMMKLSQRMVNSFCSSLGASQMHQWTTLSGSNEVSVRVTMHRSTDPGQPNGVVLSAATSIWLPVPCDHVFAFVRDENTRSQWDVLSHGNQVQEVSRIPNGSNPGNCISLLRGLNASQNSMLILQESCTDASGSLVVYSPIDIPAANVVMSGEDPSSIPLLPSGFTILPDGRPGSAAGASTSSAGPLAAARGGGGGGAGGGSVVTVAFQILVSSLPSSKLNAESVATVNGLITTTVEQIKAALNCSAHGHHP

T2: Flag:HA:URL1 of the transgenic rice line B320 (ProActin1-Flag:HA:Url1) (rice (Oryza sativa L.)) (UniProt Q69T58)
T2 sequence: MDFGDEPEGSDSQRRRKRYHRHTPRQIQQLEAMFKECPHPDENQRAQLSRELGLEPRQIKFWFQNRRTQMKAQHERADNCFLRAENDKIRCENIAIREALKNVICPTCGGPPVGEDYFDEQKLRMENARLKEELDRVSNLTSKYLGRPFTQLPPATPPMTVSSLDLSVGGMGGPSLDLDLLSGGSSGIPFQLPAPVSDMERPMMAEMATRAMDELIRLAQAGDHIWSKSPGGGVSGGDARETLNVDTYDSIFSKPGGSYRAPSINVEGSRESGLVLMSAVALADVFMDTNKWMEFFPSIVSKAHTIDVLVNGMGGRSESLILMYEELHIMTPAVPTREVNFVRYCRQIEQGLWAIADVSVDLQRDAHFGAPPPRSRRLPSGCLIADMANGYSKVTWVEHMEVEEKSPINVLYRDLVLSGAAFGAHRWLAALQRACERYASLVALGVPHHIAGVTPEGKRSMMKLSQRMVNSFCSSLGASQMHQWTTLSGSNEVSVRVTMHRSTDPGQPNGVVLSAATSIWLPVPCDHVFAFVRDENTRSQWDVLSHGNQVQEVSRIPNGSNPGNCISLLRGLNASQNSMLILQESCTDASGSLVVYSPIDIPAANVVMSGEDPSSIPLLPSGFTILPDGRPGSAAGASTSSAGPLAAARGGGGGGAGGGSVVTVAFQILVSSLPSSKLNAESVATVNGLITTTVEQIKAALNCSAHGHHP


Experiments:
[1] = biological target: ROC5 (RICE OUTERMOST CELL-SPECIFIC 5), HD-ZIP IV family member, yeast two-hybrid fusion (rice (Oryza sativa L.)) (UniProt Q6EPF0); test: two-hybrid; full-length URL1 and ROC5 in pGBKT7 or pGADT7; yeast strain AH109; growth on SD-Leu-Trp-His with 15 mM 3-AT and liquid beta-galactosidase activity assay
[2] = biological target: T1, URL1 (UPWARD ROLLED LEAF1), HD-ZIP IV family member RICE OUTERMOST CELL-SPECIFIC 8 (ROC8), yeast two-hybrid fusion (rice (Oryza sativa L.)); test: as above
[3] = biological target: T2, Flag:HA:URL1 of the transgenic rice line B320 (ProActin1-Flag:HA:Url1) (rice (Oryza sativa L.)); test: co-IP; 6xMyc:ROC5 transiently expressed in protoplasts of transgenic rice B320 (Flag:HA:Url1); lysate supernatant incubated with anti-HA-conjugated agarose; immunoblot with anti-Myc and anti-HA

binding [1] | binding [2] | binding [3] | Binder
binds | binds | – | ROC5 (RICE OUTERMOST CELL-SPECIFIC 5), HD-ZIP IV family member, yeast two-hybrid fusion (protein, UniProt Q6EPF0 1-804) MSFGGLFDGGGGGGMQFPFASGFASSPALSLALDNAGGGIGGRMLGGGAGAGSSAGGAMTRDTEAENDSRSGSDHLDAISAAGEDDVEDAEPSNSRKRKKRYHRHTPQQIQELEALFKECPHPDEKQRAELSRRLSLDARQVKFWFQNRRTQMKTQLERHENALLKQENDKLRAENMTIREAMRSPMCGSCGSPAMLGEVSLEEQHLRIENARLKDELNRVCALATKFLGKPISLLSPPPLLQPHLSLPMPNSSLELAIGGIGGLGSLGTLPGCMNEFAGGVSSPMGTVITPARATGAAIPSLVGNIDRSVFLELAISAMDELVKMAQMDDPLWVPALPGSPSKEVLNFEEYLHSFLPCIGMKPAGYVSEASRESGLVIIDNSLALVETLMDERRWSDMFSCMIAKATVLEEVSTGIAGSRNGALLLMKAELQVLSPLVPIREVTFLRFCKQLAEGAWAVVDVSIDGLVRDHNSGTAPTGGNVKCRRVPSGCVMQDTPNGYCKVTWVEHTEYDEASVHQLYRPLLRSGLAFGARRWLATLQRQCECLAILMSSATVTANDSTAISQEGKRSMLKLARRMTENFCAGVSASSAREWSKLDGATGSIGEDVRVMARKSVSEPGEPPGVVLSAATSVWVPVAPEKLFNFLRDEQLRAEWDILSNGGPMQEMTQIAKGQRDGNSVSLLRASAVSANQSSMLILQETCTDASGSIVVYAPVDIPAMQLVMNGGDSTYVALLPSGFAILPDGPRIGATGYETGGSLLTVAFQILVNNQPTAKLTVESVETVNNLISCTIKKIKTALQCDA
– | – | binds | 6xMyc:ROC5 (MYC-ROC5 fusion protein) (protein, UniProt Q6EPF0 1-804) MSFGGLFDGGGGGGMQFPFASGFASSPALSLALDNAGGGIGGRMLGGGAGAGSSAGGAMTRDTEAENDSRSGSDHLDAISAAGEDDVEDAEPSNSRKRKKRYHRHTPQQIQELEALFKECPHPDEKQRAELSRRLSLDARQVKFWFQNRRTQMKTQLERHENALLKQENDKLRAENMTIREAMRSPMCGSCGSPAMLGEVSLEEQHLRIENARLKDELNRVCALATKFLGKPISLLSPPPLLQPHLSLPMPNSSLELAIGGIGGLGSLGTLPGCMNEFAGGVSSPMGTVITPARATGAAIPSLVGNIDRSVFLELAISAMDELVKMAQMDDPLWVPALPGSPSKEVLNFEEYLHSFLPCIGMKPAGYVSEASRESGLVIIDNSLALVETLMDERRWSDMFSCMIAKATVLEEVSTGIAGSRNGALLLMKAELQVLSPLVPIREVTFLRFCKQLAEGAWAVVDVSIDGLVRDHNSGTAPTGGNVKCRRVPSGCVMQDTPNGYCKVTWVEHTEYDEASVHQLYRPLLRSGLAFGARRWLATLQRQCECLAILMSSATVTANDSTAISQEGKRSMLKLARRMTENFCAGVSASSAREWSKLDGATGSIGEDVRVMARKSVSEPGEPPGVVLSAATSVWVPVAPEKLFNFLRDEQLRAEWDILSNGGPMQEMTQIAKGQRDGNSVSLLRASAVSANQSSMLILQETCTDASGSIVVYAPVDIPAMQLVMNGGDSTYVALLPSGFAILPDGPRIGATGYETGGSLLTVAFQILVNNQPTAKLTVESVETVNNLISCTIKKIKTALQCDA
